Patent US20180208642A1
No constants are given. Whether binding was seen depends on the method and setting. Some results given as binding are weak or reduced against the parent protein; the word gives no strength.

Amino acid sequences for entries named in this document (tags omitted). A change or cut given only in a name is not applied to a line headed by its entry. Residues count along the entry.
UniProt P17948, residues 27-687: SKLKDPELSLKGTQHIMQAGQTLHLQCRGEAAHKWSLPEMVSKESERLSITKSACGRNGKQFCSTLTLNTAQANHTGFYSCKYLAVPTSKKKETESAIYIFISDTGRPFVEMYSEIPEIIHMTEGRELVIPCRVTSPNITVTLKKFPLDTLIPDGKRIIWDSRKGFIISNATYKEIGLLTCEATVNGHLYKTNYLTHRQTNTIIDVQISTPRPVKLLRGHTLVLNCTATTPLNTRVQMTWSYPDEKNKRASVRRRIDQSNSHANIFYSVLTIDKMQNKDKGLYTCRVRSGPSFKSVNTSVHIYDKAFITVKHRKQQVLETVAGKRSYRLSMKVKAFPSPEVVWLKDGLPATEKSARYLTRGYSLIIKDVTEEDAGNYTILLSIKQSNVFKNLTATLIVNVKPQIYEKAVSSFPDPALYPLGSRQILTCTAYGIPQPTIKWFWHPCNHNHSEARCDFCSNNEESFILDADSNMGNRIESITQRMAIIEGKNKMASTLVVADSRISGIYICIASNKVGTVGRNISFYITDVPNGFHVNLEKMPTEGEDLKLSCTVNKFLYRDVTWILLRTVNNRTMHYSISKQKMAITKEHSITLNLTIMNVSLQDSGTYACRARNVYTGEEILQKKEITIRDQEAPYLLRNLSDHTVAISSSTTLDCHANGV

B1: anti-Flt1-EBPP[A1G4I1]12 (designed binder)
chain: GNQWFIVPAGGVPAAGVPAGGVPAGGVPAIGVPAGGVPAGGVPAAGVPAGGVPAGGVPAIGVPAGGVPAGGVPAAGVPAGGVPAGGVPAIGVPAGGVPAGGVPAAGVPAGGVPAGGVPAIGVPAGGVPAGGVPAAGVPAGGVPAGGVPAIGVPAGGVPAGGVPAAGVPAGGVPAGGVPAIGVPAGGVPAGGVPAAGVPAGGVPAGGVPAIGVPAGGVPAGGVPAAGVPAGGVPAGGVPAIGVPAGGVPAGGVPAAGVPAGGVPAGGVPAIGVPAGGVPAGGVPAAGVPAGGVPAGGVPAIGVPAGGVPAGGVPAAGVPAGGVPAGGVPAIGVPAGGVPAGGVPAAGVPAGGVPAGGVPAIGVPAGG
B2: anti-Flt1-EBPP[A1G4I1]24 (designed binder)
chain: GNQWFIVPAGGVPAAGVPAGGVPAGGVPAIGVPAGGVPAGGVPAAGVPAGGVPAGGVPAIGVPAGGVPAGGVPAAGVPAGGVPAGGVPAIGVPAGGVPAGGVPAAGVPAGGVPAGGVPAIGVPAGGVPAGGVPAAGVPAGGVPAGGVPAIGVPAGGVPAGGVPAAGVPAGGVPAGGVPAIGVPAGGVPAGGVPAAGVPAGGVPAGGVPAIGVPAGGVPAGGVPAAGVPAGGVPAGGVPAIGVPAGGVPAGGVPAAGVPAGGVPAGGVPAIGVPAGGVPAGGVPAAGVPAGGVPAGGVPAIGVPAGGVPAGGVPAAGVPAGGVPAGGVPAIGVPAGGVPAGGVPAAGVPAGGVPAGGVPAIGVPAGGVPAGGVPAAGVPAGGVPAGGVPAIGVPAGGVPAGGVPAAGVPAGGVPAGGVPAIGVPAGGVPAGGVPAAGVPAGGVPAGGVPAIGVPAGGVPAGGVPAAGVPAGGVPAGGVPAIGVPAGGVPAGGVPAAGVPAGGVPAGGVPAIGVPAGGVPAGGVPAAGVPAGGVPAGGVPAIGVPAGGVPAGGVPAAGVPAGGVPAGGVPAIGVPAGGVPAGGVPAAGVPAGGVPAGGVPAIGVPAGGVPAGGVPAAGVPAGGVPAGGVPAIGVPAGGVPAGGVPAAGVPAGGVPAGGVPAIGVPAGGVPAGGVPAAGVPAGGVPAGGVPAIGVPAGGVPAGGVPAAGVPAGGVPAGGVPAIGVPAGG
B3: anti-Flt1-EBPP[A1G4I1]6 (designed binder)
chain: GNQWFIVPAGGVPAAGVPAGGVPAGGVPAIGVPAGGVPAGGVPAAGVPAGGVPAGGVPAIGVPAGGVPAGGVPAAGVPAGGVPAGGVPAIGVPAGGVPAGGVPAAGVPAGGVPAGGVPAIGVPAGGVPAGGVPAAGVPAGGVPAGGVPAIGVPAGGVPAGGVPAAGVPAGGVPAGGVPAIGVPAGG
B4: anti-Flt1-EBPP[A1G4I1]3 (designed binder)
chain: GNQWFIVPAGGVPAAGVPAGGVPAGGVPAIGVPAGGVPAGGVPAAGVPAGGVPAGGVPAIGVPAGGVPAGGVPAAGVPAGGVPAGGVPAIGVPAGG
B5: anti-Flt1-EBPP[E1G4I1]12-EBPP[G1A3F2]12 (designed binder)
chain: GNQWFIVPAGGVPAEGVPAGGVPAGGVPAIGVPAGGVPAGGVPAEGVPAGGVPAGGVPAIGVPAGGVPAGGVPAEGVPAGGVPAGGVPAIGVPAGGVPAGGVPAEGVPAGGVPAGGVPAIGVPAGGVPAGGVPAEGVPAGGVPAGGVPAIGVPAGGVPAGGVPAEGVPAGGVPAGGVPAIGVPAGGVPAGGVPAEGVPAGGVPAGGVPAIGVPAGGVPAGGVPAEGVPAGGVPAGGVPAIGVPAGGVPAGGVPAEGVPAGGVPAGGVPAIGVPAGGVPAGGVPAEGVPAGGVPAGGVPAIGVPAGGVPAGGVPAEGVPAGGVPAGGVPAIGVPAGGVPAGGVPAEGVPAGGVPAGGVPAIGVPAGGVPAAGVPAFGVPAAGVPAGGVPAAGVPAFGVPAAGVPAFGVPAAGVPAGGVPAAGVPAFGVPAAGVPAFGVPAAGVPAGGVPAAGVPAFGVPAAGVPAFGVPAAGVPAGGVPAAGVPAFGVPAAGVPAFGVPAAGVPAGGVPAAGVPAFGVPAAGVPAFGVPAAGVPAGGVPAAGVPAFGVPAAGVPAFGVPAAGVPAGGVPAAGVPAFGVPAAGVPAFGVPAAGVPAGGVPAAGVPAFGVPAAGVPAFGVPAAGVPAGGVPAAGVPAFGVPAAGVPAFGVPAAGVPAGGVPAAGVPAFGVPAAGVPAFGVPAAGVPAGGVPAAGVPAFGVPAAGVPAFGVPAAGVPAGGVPAAGVPAFG
B6: anti-Flt1-EBPP[E1G4I1]12-EBPP[G1A3F2]24 (designed binder)
chain: GNQWFIVPAGGVPAEGVPAGGVPAGGVPAIGVPAGGVPAGGVPAEGVPAGGVPAGGVPAIGVPAGGVPAGGVPAEGVPAGGVPAGGVPAIGVPAGGVPAGGVPAEGVPAGGVPAGGVPAIGVPAGGVPAGGVPAEGVPAGGVPAGGVPAIGVPAGGVPAGGVPAEGVPAGGVPAGGVPAIGVPAGGVPAGGVPAEGVPAGGVPAGGVPAIGVPAGGVPAGGVPAEGVPAGGVPAGGVPAIGVPAGGVPAGGVPAEGVPAGGVPAGGVPAIGVPAGGVPAGGVPAEGVPAGGVPAGGVPAIGVPAGGVPAGGVPAEGVPAGGVPAGGVPAIGVPAGGVPAGGVPAEGVPAGGVPAGGVPAIGVPAGGVPAAGVPAFGVPAAGVPAGGVPAAGVPAFGVPAAGVPAFGVPAAGVPAGGVPAAGVPAFGVPAAGVPAFGVPAAGVPAGGVPAAGVPAFGVPAAGVPAFGVPAAGVPAGGVPAAGVPAFGVPAAGVPAFGVPAAGVPAGGVPAAGVPAFGVPAAGVPAFGVPAAGVPAGGVPAAGVPAFGVPAAGVPAFGVPAAGVPAGGVPAAGVPAFGVPAAGVPAFGVPAAGVPAGGVPAAGVPAFGVPAAGVPAFGVPAAGVPAGGVPAAGVPAFGVPAAGVPAFGVPAAGVPAGGVPAAGVPAFGVPAAGVPAFGVPAAGVPAGGVPAAGVPAFGVPAAGVPAFGVPAAGVPAGGVPAAGVPAFGVPAAGVPAFGVPAAGVPAGGVPAAGVPAFGVPAAGVPAFGVPAAGVPAGGVPAAGVPAFGVPAAGVPAFGVPAAGVPAGGVPAAGVPAFGVPAAGVPAFGVPAAGVPAGGVPAAGVPAFGVPAAGVPAFGVPAAGVPAGGVPAAGVPAFGVPAAGVPAFGVPAAGVPAGGVPAAGVPAFGVPAAGVPAFGVPAAGVPAGGVPAAGVPAFGVPAAGVPAFGVPAAGVPAGGVPAAGVPAFGVPAAGVPAFGVPAAGVPAGGVPAAGVPAFGVPAAGVPAFGVPAAGVPAGGVPAAGVPAFGVPAAGVPAFGVPAAGVPAGGVPAAGVPAFGVPAAGVPAFGVPAAGVPAGGVPAAGVPAFG

Biological target: recombinant human Flt1-Fc chimeric protein (human) (UniProt P17948)
Assay: competition ELISA (FIG. 11)

| binding | Binder |
| --- | --- |
| binds | B1 |
| binds | B2 |
| binds | B3 |
| binds | B4 |

Biological target: recombinant human Flt1-Fc chimeric protein (human) (UniProt P17948)
Assay: competition ELISA: Flt1-Fc pre-incubated with polypeptide, added to VEGF165-coated wells

| binding | Binder |
| --- | --- |
| binds | B1 |
| binds | B2 |
| binds | B3 |
| binds | B4 |

Biological target: recombinant human Flt1-Fc chimeric protein (human) (UniProt P17948)
Assay: competition ELISA: Flt1-Fc pre-incubated with micelle-forming polypeptide, added to VEGF165-coated wells

| binding | Binder |
| --- | --- |
| binds | B5 |
| binds | B6 |
